In patent publication US20250145665A1, “MACROCYCLIC PEPTIDES USEFUL AS MODULATORS OF TNF ALPHA” (Bristol-Myers Squibb Company, priority 2023, published 2025):
Some of these results come from one statement about several compounds together. Starred links: 1 amine or outer side, 2 acyl side, 3 side chain; linkers in the order of their positions; H or OH if unused. Positions of bridges follow the written chain, without caps; N, C: chain ends. Non-standard residues stand in square brackets, D forms with d. Residues, ends and D or L forms follow the SMILES beside them. Bip(4'-COOH) = N[C@@H](Cc1ccc(-c2ccc(C(=O)O)cc2)cc1)C(=O)O; Bip(4'-NHAc) = CC(=O)Nc1ccc(-c2ccc(C[C@H](N)C(=O)O)cc2)cc1; Phe(3-CH2NH2) = O=C([C@H](Cc1cccc(CN[*:3])c1)N[*:1])[*:2]; Ala(morpholin-4-yl) = N[C@@H](CN1CCOCC1)C(=O)O; Phe(3-CONH2) = NC(=O)c1cccc(C[C@H](N)C(=O)O)c1; Bip = N[C@@H](Cc1ccc(-c2ccccc2)cc1)C(=O)O; Phe(3-OMe) = COc1cccc(C[C@H](N)C(=O)O)c1; Tiq1c(1S) = O=C(O)[C@H]1NCCc2ccccc21; Hyp = O=C(O)[C@@H]1C[C@@H](O)CN1; 2Pal = N[C@@H](Cc1ccccn1)C(=O)O; Tic = O=C(O)[C@@H]1Cc2ccccc2CN1; Cha = N[C@@H](CC1CCCCC1)C(=O)O; Chg = N[C@H](C(=O)O)C1CCCCC1; Aze = O=C(O)[C@@H]1CCN1; Sar = CNCC(=O)O

By UniProt entry, the sequences of proteins in these tests, tags left out. Residues count along the entry.
UniProt P01375, 77-233 limits assumed: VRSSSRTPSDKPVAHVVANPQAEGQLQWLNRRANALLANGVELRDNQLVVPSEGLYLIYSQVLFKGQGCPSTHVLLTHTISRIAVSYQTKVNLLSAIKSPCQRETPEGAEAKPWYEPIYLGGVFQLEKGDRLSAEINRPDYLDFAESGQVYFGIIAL

Biological target: TNFα (Homo sapiens, UniProt P01375)
Experiment: TNF-Induced HEK-Blue Assay
Assay type: cell-based
Settings: summary statement for all examples; read-out: IC50 values measured in the TNF induced HEK-Blue assay

IC50, ≤ 25 µM:
CC(=O)Nc1ccc(-c2ccc(C[C@@H]3NC(=O)[C@H](Cc4ccc(-c5ccc(C(=O)O)cc5)cc4)NC(=O)[C@H](CC4CCCCC4)NC(=O)CSC[C@@H](C(=O)NCC(N)=O)NC(=O)[C@H](CC(C)C)NC(=O)[C@H](Cc4cnc[nH]4)NC(=O)[C@H](C(C)C)NC(=O)[C@@H]4CCN4C(=O)[C@H](C(C)C)NC(=O)[C@@H](CCCNC(=N)N)NC(=O)[C@H](CC(=O)O)NC(=O)[C@H](Cc4ccc(O)cc4)NC(=O)CN(C)C3=O)cc2)cc1 [Example 271] ({CH2CO}-[Cha][Bip(4'-COOH)][Bip(4'-NHAc)][Sar]YD[dR]V[Aze]VHLCG-NH2; thioether N-13)
CC(=O)Nc1ccc(-c2ccc(C[C@@H]3NC(=O)[C@H](Cc4ccc(-c5ccc(C(=O)O)cc5)cc4)NC(=O)[C@H](CC4CCCCC4)NC(=O)CSC[C@@H](C(=O)NCC(N)=O)NC(=O)[C@H](CC(C)C)NC(=O)[C@H](Cc4cnc[nH]4)NC(=O)[C@H](C4CCCCC4)NC(=O)[C@@H]4CCN4C(=O)[C@H](C(C)C)NC(=O)[C@@H](CCCNC(=N)N)NC(=O)[C@H](CC(=O)O)NC(=O)[C@H](Cc4cnc[nH]4)NC(=O)CN(C)C3=O)cc2)cc1 [Example 272] ({CH2CO}-[Cha][Bip(4'-COOH)][Bip(4'-NHAc)][Sar]HD[dR]V[Aze][Chg]HLCG-NH2; thioether N-13)
CC(=O)Nc1ccc(-c2ccc(C[C@@H]3NC(=O)[C@H](Cc4ccc(-c5ccccc5)cc4)NC(=O)[C@H](CN4CCOCC4)NC(=O)CSC[C@@H](C(=O)NCC(N)=O)NC(=O)[C@H](CC(C)C)NC(=O)[C@H](Cc4cnc[nH]4)NC(=O)[C@H](C(C)C)NC(=O)[C@@H]4CCN4C(=O)[C@H](C(C)C)NC(=O)[C@@H](CCCNC(=N)N)NC(=O)[C@H](CC(=O)O)NC(=O)[C@H](Cc4ccc(O)cc4)NC(=O)CN(C)C3=O)cc2)cc1 [Example 273] ({CH2CO}-[Ala(morpholin-4-yl)][Bip][Bip(4'-NHAc)][Sar]YD[dR]V[Aze]VHLCG-NH2; thioether N-13)
CC[C@H](C)[C@@H]1NC(=O)[C@@H](CCCNC(=N)N)NC(=O)[C@H](CC(=O)O)NC(=O)[C@H](Cc2cnc[nH]2)NC(=O)CN(C)C(=O)[C@H](Cc2ccc(-c3ccc(NC(C)=O)cc3)cc2)NC(=O)[C@H](Cc2ccc(-c3ccc(C(=O)O)cc3)cc2)NC(=O)[C@H](CC2CCCCC2)NC(=O)CSC[C@@H](C(=O)NCC(N)=O)NC(=O)[C@H](CC(C)C)NC(=O)[C@H](Cc2cnc[nH]2)NC(=O)[C@H](C(C)C)NC(=O)[C@@H]2Cc3ccccc3CN2C1=O [Example 274] ({CH2CO}-[Cha][Bip(4'-COOH)][Bip(4'-NHAc)][Sar]HD[dR]I[Tic]VHLCG-NH2; thioether N-13)
CC(=O)Nc1ccc(-c2ccc(C[C@@H]3NC(=O)[C@H](Cc4ccc(-c5ccc(C(=O)O)cc5)cc4)NC(=O)[C@H](CC4CCCCC4)NC(=O)CSC[C@@H](C(=O)NCC(N)=O)NC(=O)[C@H](CC(C)C)NC(=O)[C@H](Cc4ccc(O)cc4)NC(=O)[C@H](C(C)C)NC(=O)[C@@H]4Cc5ccccc5CN4C(=O)[C@H](C(C)C)NC(=O)[C@@H](CCCNC(=N)N)NC(=O)[C@H](CC(=O)O)NC(=O)[C@@H]4CCCN4C(=O)CN(C)C3=O)cc2)cc1 [Example 275] ({CH2CO}-[Cha][Bip(4'-COOH)][Bip(4'-NHAc)][Sar]PD[dR]V[Tic]VYLCG-NH2; thioether N-13)
CC[C@H](C)[C@@H]1NC(=O)[C@@H](CCCNC(=N)N)NC(=O)[C@H](CC(=O)O)NC(=O)[C@H](Cc2cnc[nH]2)NC(=O)CN(C)C(=O)[C@H](Cc2ccc(-c3ccc(NC(C)=O)cc3)cc2)NC(=O)[C@H](Cc2ccc(-c3ccc(C(=O)O)cc3)cc2)NC(=O)[C@H](CC2CCCCC2)NC(=O)CSC[C@@H](C(=O)NCC(N)=O)NC(=O)[C@H](CC(C)C)NC(=O)[C@H](Cc2cnc[nH]2)NC(=O)[C@H](C(C)C)NC(=O)[C@@H]2c3ccccc3CCN2C1=O [Example 276] ({CH2CO}-[Cha][Bip(4'-COOH)][Bip(4'-NHAc)][Sar]HD[dR]I[Tiq1c(1S)]VHLCG-NH2; thioether N-13)
CC[C@H](C)[C@@H]1NC(=O)[C@@H](CCCNC(=N)N)NC(=O)[C@H](CC(=O)O)NC(=O)[C@H](Cc2cnc[nH]2)NC(=O)CN(C)C(=O)[C@H](Cc2ccc(-c3ccc(NC(C)=O)cc3)cc2)NC(=O)[C@H](Cc2ccc(-c3ccc(C(=O)O)cc3)cc2)NC(=O)[C@H](CC2CCCCC2)NC(=O)CSC[C@@H](C(=O)NCC(N)=O)NC(=O)[C@H](CC(C)C)NC(=O)[C@H](Cc2cnc[nH]2)NC(=O)[C@H](C(C)C)NC(=O)[C@@H]2C[C@@H](O)CN2C1=O [Example 277] ({CH2CO}-[Cha][Bip(4'-COOH)][Bip(4'-NHAc)][Sar]HD[dR]I[Hyp]VHLCG-NH2; thioether N-13)
CC[C@H](C)[C@@H]1NC(=O)[C@@H](CCCNC(=N)N)NC(=O)[C@H](CC(=O)O)NC(=O)[C@@H]2c3ccccc3CCN2C(=O)CN(C)C(=O)[C@H](Cc2ccc(-c3ccc(NC(C)=O)cc3)cc2)NC(=O)[C@H](Cc2ccc(-c3ccc(C(=O)O)cc3)cc2)NC(=O)[C@H](CC2CCCCC2)NC(=O)CSC[C@@H](C(=O)NCC(N)=O)NC(=O)[C@H](CC(C)C)NC(=O)[C@H](Cc2ccc(O)cc2)NC(=O)[C@H](C(C)C)NC(=O)[C@@H]2CCCN2C1=O [Example 279] ({CH2CO}-[Cha][Bip(4'-COOH)][Bip(4'-NHAc)][Sar][Tiq1c(1S)]D[dR]IPVYLCG-NH2; thioether N-13)
CC(=O)Nc1ccc(-c2ccc(C[C@@H]3NC(=O)[C@H](Cc4ccc(-c5ccc(C(=O)O)cc5)cc4)NC(=O)[C@H](CC4CCCCC4)NC(=O)CSC[C@@H](C(=O)NCC(N)=O)NC(=O)[C@H](CC(C)C)NC(=O)[C@H](Cc4cnc[nH]4)NC(=O)[C@H](C(C)C)NC(=O)[C@@H]4CCCN4C(=O)[C@H](C4CCCCC4)NC(=O)[C@@H](CCCNC(=N)N)NC(=O)[C@H](CC(=O)O)NC(=O)[C@H](Cc4cnc[nH]4)NC(=O)CN(C)C3=O)cc2)cc1 [Example 280] ({CH2CO}-[Cha][Bip(4'-COOH)][Bip(4'-NHAc)][Sar]HD[dR][Chg]PVHLCG-NH2; thioether N-13)
CC[C@H](C)[C@@H]1NC(=O)[C@@H](CCCNC(=N)N)NC(=O)[C@H](CC(=O)O)NC(=O)[C@H](Cc2cnc[nH]2)NC(=O)CN(C)C(=O)[C@H](Cc2ccc(-c3ccc(NC(C)=O)cc3)cc2)NC(=O)[C@H](Cc2ccc(-c3ccc(C(=O)O)cc3)cc2)NC(=O)[C@H](CC2CCCCC2)NC(=O)CSC[C@@H](C(=O)NCC(N)=O)NC(=O)[C@H](CC(C)C)NC(=O)[C@H](Cc2ccc(OC)cc2)NC(=O)[C@H](C(C)C)NC(=O)[C@@H]2CCCN2C1=O [Example 281] ({CH2CO}-[Cha][Bip(4'-COOH)][Bip(4'-NHAc)][Sar]HD[dR]IPVY(Me)LCG-NH2; thioether N-13)
CC[C@H](C)[C@@H]1NC(=O)[C@@H](CCCNC(=N)N)NC(=O)[C@H](CC(=O)O)NC(=O)[C@H](Cc2cnc[nH]2)NC(=O)CN(C)C(=O)[C@H](Cc2ccc(-c3ccc(NC(C)=O)cc3)cc2)NC(=O)[C@H](Cc2ccc(-c3ccc(C(=O)O)cc3)cc2)NC(=O)[C@H](CC2CCCCC2)NC(=O)CSC[C@@H](C(=O)NCC(N)=O)NC(=O)[C@H](CC(C)C)NC(=O)[C@H](Cc2cccc(OC)c2)NC(=O)[C@H](C(C)C)NC(=O)[C@@H]2CCCN2C1=O [Example 282] ({CH2CO}-[Cha][Bip(4'-COOH)][Bip(4'-NHAc)][Sar]HD[dR]IPV[Phe(3-OMe)]LCG-NH2; thioether N-13)
CC(=O)Nc1ccc(-c2ccc(C[C@@H]3NC(=O)[C@H](Cc4ccc(-c5ccccc5)cc4)NC(=O)[C@H](CC4CCCCC4)NC(=O)CSC[C@@H](C(=O)NCC(N)=O)NC(=O)[C@H](CC(C)C)NC(=O)[C@H](Cc4cccc(CN)c4)NC(=O)[C@H](C(C)C)NC(=O)[C@@H]4CCCN4C(=O)[C@H](C(C)C)NC(=O)[C@@H](CCCNC(=N)N)NC(=O)[C@H](CC(=O)O)NC(=O)[C@H](Cc4ccc(O)cc4)NC(=O)CN(C)C3=O)cc2)cc1 [Example 283] ({CH2CO}-[Cha][Bip][Bip(4'-NHAc)][Sar]YD[dR]VPV[Phe(3-CH2NH2)]LCG-NH2; thioether N-13)
CC[C@H](C)[C@@H]1NC(=O)[C@@H]2CCCN2C(=O)[C@H]([C@@H](C)CC)NC(=O)[C@@H](CCCNC(=N)N)NC(=O)[C@H](CC(=O)O)NC(=O)[C@H](Cc2ccccc2)NC(=O)CN(C)C(=O)[C@H](Cc2ccc(-c3ccc(NC(C)=O)cc3)cc2)NC(=O)[C@H](Cc2ccc(-c3ccc(C(=O)O)cc3)cc2)NC(=O)[C@H](CN2CCOCC2)NC(=O)CSC[C@@H](C(=O)NCC(N)=O)NC(=O)[C@H](CC(C)C)NC(=O)[C@H](Cc2cnc[nH]2)NC1=O [Example 284] ({CH2CO}-[Ala(morpholin-4-yl)][Bip(4'-COOH)][Bip(4'-NHAc)][Sar]FD[dR]IPIHLCG-NH2; thioether N-13)
CC[C@H](C)[C@@H]1NC(=O)[C@@H]2CCCN2C(=O)[C@H]([C@@H](C)CC)NC(=O)[C@@H](CCCNC(=N)N)NC(=O)[C@H](CC(=O)O)NC(=O)[C@H](Cc2ccccn2)NC(=O)CN(C)C(=O)[C@H](Cc2ccc(-c3ccc(NC(C)=O)cc3)cc2)NC(=O)[C@H](Cc2ccc(-c3ccccc3)cc2)NC(=O)[C@H](CC2CCCCC2)NC(=O)CSC[C@@H](C(=O)NCC(N)=O)NC(=O)[C@H](CC(C)C)NC(=O)[C@H](Cc2cccc(C(N)=O)c2)NC1=O [Example 285] ({CH2CO}-[Cha][Bip][Bip(4'-NHAc)][Sar][2Pal]D[dR]IPI[Phe(3-CONH2)]LCG-NH2; thioether N-13)
CC[C@H](C)[C@@H]1NC(=O)[C@@H]2CCCN2C(=O)[C@H]([C@@H](C)CC)NC(=O)[C@@H](CCCNC(=N)N)NC(=O)[C@H](CC(=O)O)NC(=O)[C@@H]2CCCN2C(=O)CN(C)C(=O)[C@H](Cc2ccc(-c3ccc(NC(C)=O)cc3)cc2)NC(=O)[C@H](Cc2ccc(-c3ccc(C(=O)O)cc3)cc2)NC(=O)[C@H](CC2CCCCC2)NC(=O)CSC[C@@H](C(=O)NCC(N)=O)NC(=O)[C@H](CC(C)C)NC(=O)[C@H](Cc2ccc(O)cc2)NC1=O [Example 286] ({CH2CO}-[Cha][Bip(4'-COOH)][Bip(4'-NHAc)][Sar]PD[dR]IPIYLCG-NH2; thioether N-13)
